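Methionyl-tRNA synthetase (putative), Leishmania donovani (UniProt E9BF75). Primary screen of methionyl-tRNA synthetase; the read-out is not stated. The test concentration is not given. Values are per cent inhibition. Of about 68,000 compounds tested this way, about 24 (0.035%) reached 50% or more in at least one test.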

Sequences of proteins named here, by UniProt entry; tags and fusion partners are left off.
UniProt E9BF75, entry or part of it: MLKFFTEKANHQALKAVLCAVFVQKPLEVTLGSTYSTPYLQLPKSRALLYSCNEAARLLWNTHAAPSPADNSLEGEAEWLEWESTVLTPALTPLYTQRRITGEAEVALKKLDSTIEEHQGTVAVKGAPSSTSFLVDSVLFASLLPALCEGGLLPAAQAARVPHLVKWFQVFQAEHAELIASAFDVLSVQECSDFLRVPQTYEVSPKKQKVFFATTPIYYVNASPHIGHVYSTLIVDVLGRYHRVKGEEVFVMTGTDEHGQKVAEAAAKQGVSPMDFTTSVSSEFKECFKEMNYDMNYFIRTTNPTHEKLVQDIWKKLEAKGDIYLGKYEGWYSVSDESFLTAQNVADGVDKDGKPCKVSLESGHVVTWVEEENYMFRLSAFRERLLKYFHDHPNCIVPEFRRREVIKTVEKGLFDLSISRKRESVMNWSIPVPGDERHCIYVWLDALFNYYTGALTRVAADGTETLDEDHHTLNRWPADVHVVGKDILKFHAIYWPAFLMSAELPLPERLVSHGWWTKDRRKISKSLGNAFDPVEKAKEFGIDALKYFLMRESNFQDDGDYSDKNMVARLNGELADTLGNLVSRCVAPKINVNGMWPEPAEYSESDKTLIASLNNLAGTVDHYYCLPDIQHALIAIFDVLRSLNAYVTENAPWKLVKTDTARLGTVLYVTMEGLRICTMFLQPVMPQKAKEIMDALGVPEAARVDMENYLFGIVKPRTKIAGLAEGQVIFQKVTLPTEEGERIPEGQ

Results are percentages, as filed. The controls that fix the scale are not given in the record; negative values are as filed. This is an unselected part of the compounds tested.

compound | inhibition
CC(=O)N1CCCC1(C)c1nc(C)no1 (stereo not given) | 15.84%
CCOc1cc(Cl)ccc1CNC(=O)N(C)CC(C)(C)O | 2.395%
CC(c1ccco1)N(C)Cc1cc2cc3c(cc2[nH]c1=O)OCO3 (stereo not given) | 4.092%
Cn1ccnc1C(NCc1ccccc1)c1ccc(F)cc1 (stereo not given) | 14.29%
Cn1nc(CN2CCCCC2)c2c1CN(Cc1ccoc1)C2 | 10.14%
CN1CCOC(C)(C(=O)Nc2nc(C(C)(C)C)cs2)C1 (stereo not given) | 0%
Cc1ccc(C(C(=O)NCCc2nc(C)cc(=O)[nH]2)N(C)C)cc1 (stereo not given) | -0.7092%
CCCc1n[nH]c(C2CN(C(=O)Cc3ccc(C)nc3)CCO2)n1 (stereo not given) | 8.696%
Cc1noc(C)c1S(=O)(=O)N1CCC(Oc2ccccn2)CC1 | 5.036%
Cc1ccc(O)c(CN2CCCCC2CCN2CCOCC2)c1 (stereo not given) | 16.1%
CC(C)Oc1ccc(CSc2nnc(CN3CCCC3=O)o2)cc1 | 14.63%
Cc1ncsc1CN1CCOC(C)(C(N)=O)C1 (stereo not given) | 3.675%
Cc1ccsc1-c1nnc(C2CCN(Cc3ccc(F)cc3)CC2)o1 | 16.1%
Cc1cc(C(F)(F)F)nc(CCNC(C)Cn2nc(C)cc2C)n1 (stereo not given) | 6.989%
C[C@@H]1CN(S(=O)(=O)N2CCCC2)CC[C@@]1(O)C1CCOCC1 | 14.2%
Cc1ncc(CN2CCN(c3ccc4nncn4n3)C(C)C2)s1 (stereo not given) | 13.96%
OCCOc1ccccc1CN1CCCC(O)(CO)C1 (stereo not given) | 0.7692%
CCOCCN1CCN(c2ncccc2C#N)CC1CC (stereo not given) | 10.79%
CN(Cc1noc(C(C)(C)C)n1)Cc1ccccc1N1CCCC1 | 16.08%
c1cnnc(N2CCCC(NCc3cn4ccccc4n3)C2)c1 (stereo not given) | 4.53%
Cn1ccc(C(=O)N2CCOC3(COCCN(CC4CC4)C3)C2)n1 (stereo not given) | 13.19%
Cn1cnc2c1CCN(Cc1cccc(C(N)=O)c1)C2 | 11.04%
O=C(O)Cc1cn2cc(C(F)(F)F)ccc2n1 | 14.02%
CCC(CC)(CNC(=O)OC(C)(C)C)NC(=O)c1cnccn1 | 10.57%
OC[C@H]1CCCN1c1nccc(-c2c[nH]nc2C2CCCCC2)n1 | 15.29%
Cc1nn(C)c(N2CCOCC2)c1CNC1CCCCNC1=O (stereo not given) | 13.18%
Cc1ccc2c(n1)N(CC1CC1)CCN(Cc1ccco1)C2 | 10.73%
c1ccc(OCC2C[C@@H]3[C@@H](C2)OCCN3CC2CCOCC2)nc1 (stereo not given in full) | 13.11%
C=C(Br)CN(C)C1CCN(CCc2ccccn2)CC1 | 18.44%
Cc1ccc2cc(CN(C)Cc3ccncn3)c(=O)[nH]c2c1 | 6.03%
O=C(NCCn1ccnc1)N1CCCC1c1ccncc1 (stereo not given) | 20.7%
CCc1cnc2c(c1NCc1ccc(OC)cc1)c(=O)n(C)c(=O)n2C | 9.014%
CC(NC(=O)COc1ccc(F)cc1)c1nnc2n1CCCCC2 (stereo not given) | 11.76%
O=C(Cc1ccsc1)N1CCn2cc(Cn3cncn3)nc2C1 | 8.904%
Cc1ccnc(NCCCN2CCc3ccccc32)n1 | 19.47%
O=C(c1ccncn1)N1CCC[C@]2(C[C@@H](OCC3CC3)CO2)C1 | 14.43%
CC(C)CNC(=O)CCN1C(=O)CCc2cc(F)ccc21 | 13.14%
N#Cc1ncn(CCC(=O)Nc2ccccc2F)n1 | 12.88%
Cc1nnc(CN2CCC3(CCC(=O)N(C4CC4)C3)CC2)o1 | 14.75%
N#Cc1cccnc1N1CCCN(C(=O)CCc2nccs2)CC1 | 7.831%
O=C(NCc1ccco1)c1cc(N2CC[C@@H](O)C2)ccn1 | 12.54%
Cc1cc(=O)n(CC(=O)NCC2CCCO2)c(-c2cccc(Cl)c2)n1 (stereo not given) | 12.6%
Cc1cccc(NC(=O)C2CSc3ncc(C)c(=O)n3C2)n1 (stereo not given) | 17.53%
Cc1cc(C)n(CCC(=O)N2CCCC(n3nc(C)nc3C)C2)n1 (stereo not given) | 17.71%
CN(C)C(=O)[C@H]1C[C@@H]2CN(C(=O)NCC3CCCCC3)C[C@H]1O2 | 17.75%
CN(C)c1ccc(CNC2=NCCCN2)cc1 | 2.821%
O=C1COc2c(cccc2C(=O)N2CCCC(n3cccn3)C2)N1 (stereo not given) | 8.282%
Cc1noc(C)c1CNC(=O)c1cn(CCC2CCCCN2)nn1 (stereo not given) | 8.571%
NC(=O)Cn1nc(-c2ccccc2F)ccc1=O | 15.45%
COc1ccc(C(=O)NCc2ccco2)nn1 | 7.062%
Cc1n[nH]c(C)c1C1COCCN1C(=O)Cc1cccc(F)c1 (stereo not given) | 5.419%
CCn1cc(CNC(=O)CCc2nnc(-c3ccc(C)s3)o2)cn1 | 2.256%

The last 5 entries again:

compound	inhibition
Cc1noc(C)c1CNC(=O)c1cn(CCC2CCCCN2)nn1 (stereo not given)	8.571%
NC(=O)Cn1nc(-c2ccccc2F)ccc1=O	15.45%
COc1ccc(C(=O)NCc2ccco2)nn1	7.062%
Cc1n[nH]c(C)c1C1COCCN1C(=O)Cc1cccc(F)c1 (stereo not given)	5.419%
CCn1cc(CNC(=O)CCc2nnc(-c3ccc(C)s3)o2)cn1	2.256%

Data taken from ChEMBL document CHEMBL3988442, “University of Dundee, Small-Polar-MMV Screening Library” (2021).